Test: Metabolomics of fetal brain at E14.5
Assay type: in vivo, C57Bl/6J mice
Details: metabolite level in E14.5 fetal brain; for fold of change ABX/SPF: ANOVA contrast ABX/SPF; for fold of change GF/ABX: ANOVA contrast GF/ABX; for fold of change GF/SPF: ANOVA contrast GF/SPF; for fold of change GF/Sp: ANOVA contrast GF/Sp; for fold of change Sp/ABX: ANOVA contrast Sp/ABX; for fold of change Sp/SPF: ANOVA contrast Sp/SPF

SMILES | fold of change ABX/SPF | fold of change GF/ABX | fold of change GF/SPF | fold of change GF/Sp | fold of change Sp/ABX | fold of change Sp/SPF
O=C(O)[C@H](O)[C@@H](O)[C@H](O)[C@H](O)COP(=O)(O)O [compound 981] | 0.60 | 1.87 | 1.12 | 0.66 | 2.81 | 1.68
O=C(CO)[C@H](O)[C@H](O)COP(=O)(O)O [compound 982] | 0.47 | 1.66 | 0.79 | 0.99 | 1.69 | 0.80
O=C[C@H](O)[C@H](O)[C@H](O)COP(=O)(O)O [compound 983] | 1.23 | 0.99 | 1.22 | 0.98 | 1.00 | 1.24
O=P(O)(O)OC1OC(CO)C(O)C1O (centres unmarked) [compound 984] | 1.12 | 1.00 | 1.12 | 0.99 | 1.01 | 1.13
O=C(CO)[C@@H](O)[C@H](O)[C@H](O)[C@H](O)COP(=O)(O)O [compound 986] | 0.68 | 1.12 | 0.76 | 0.95 | 1.17 | 0.80
O=C[C@H](O)[C@H](O)[C@H](O)CO [compound 993] | 0.94 | 0.93 | 0.87 | 1.19 | 0.78 | 0.73
OC[C@@H](O)[C@@H](O)[C@@H](O)CO [compound 994] | 0.67 | 1.23 | 0.83 | 1.15 | 1.07 | 0.72
O=C(O)C(O)C(O)C(O)CO (centres unmarked) [compound 995] | 0.86 | 1.04 | 0.89 | 1.07 | 0.97 | 0.83
O=C(CO)[C@@H](O)[C@H](O)COP(=O)(O)O [compound 997] | 0.72 | 0.94 | 0.68 | 0.91 | 1.03 | 0.74
OCC(O)C(O)C(O)CO (centres unmarked) [compound 1018] | 0.61 | 1.25 | 0.77 | 0.88 | 1.42 | 0.87
O=C(O)C(O)C(O)C(O)CO (centres unmarked) [compound 1020] | 0.59 | 1.12 | 0.66 | 0.93 | 1.20 | 0.71
O=C(CO)C(O)C(O)C(O)C(O)CO (centres unmarked) [compound 1023] | 0.66 | 1.12 | 0.74 | 0.93 | 1.20 | 0.79
OCC1OC(OC2C(CO)OC(OC3C(CO)OC(OC4C(CO)OC(O)C(O)C4O)C(O)C3O)C(O)C2O)C(O)C(O)C1O (centres unmarked) [compound 1028] | 0.58 | 1.04 | 0.61 | 0.84 | 1.24 | 0.72
OCC1OC(OC2C(CO)OC(OC3C(CO)OC(O)C(O)C3O)C(O)C2O)C(O)C(O)C1O (centres unmarked) [compound 1030] | 0.53 | 1.14 | 0.61 | 0.88 | 1.30 | 0.69
OCC1OC(OC2C(CO)OC(O)C(O)C2O)C(O)C(O)C1O (centres unmarked) [compound 1033] | 0.52 | 1.31 | 0.69 | 1.02 | 1.28 | 0.67
O=C(CO)[C@@H](O)[C@H](O)[C@H](O)CO [compound 1073] | 0.64 | 1.66 | 1.06 | 1.20 | 1.38 | 0.88
OCC1OC(O)C(O)C(O)C1O (centres unmarked) [compound 1079] | 0.56 | 1.56 | 0.87 | 1.40 | 1.11 | 0.62

SMILES | fold of change ABX/SPF | fold of change GF/ABX | fold of change GF/SPF | fold of change GF/Sp | fold of change Sp/ABX | fold of change Sp/SPF
O=P(O)(O)OC1OC(CO)C(O)C(O)C1O (centres unmarked) [compound 1090] | 0.38 | 1.71 | 0.64 | 0.98 | 1.75 | 0.66
O=C(O)C(O)C(O)C(O)C(O)CO (centres unmarked) [compound 1099] | 0.74 | 0.99 | 0.74 | 0.96 | 1.03 | 0.77
O=C(O)C1OC(OP(=O)(O)OP(=O)(O)OCC2OC(n3ccc(=O)[nH]c3=O)C(O)C2O)C(O)C(O)C1O (centres unmarked) [compound 1109] | 0.89 | 1.01 | 0.91 | 0.92 | 1.10 | 0.98
CC1OC(OP(=O)(O)OP(=O)(O)OCC2OC(n3cnc4c(=O)[nH]c(N)nc43)C(O)C2O)C(O)C(O)C1O (centres unmarked) [compound 1111] | 0.39 | 1.61 | 0.62 | 1.05 | 1.53 | 0.59
CC(=O)NC1C(OP(=O)(O)OP(=O)(O)OCC2OC(n3ccc(=O)[nH]c3=O)C(O)C2O)OC(CO)C(O)C1O (centres unmarked) [compound 1115] | 0.81 | 1.05 | 0.85 | 0.96 | 1.10 | 0.89
CC(=O)NC1C(O)CC(OP(=O)(O)OCC2OC(n3ccc(N)nc3=O)C(O)C2O)(C(=O)O)OC1C(O)C(O)CO (centres unmarked) [compound 1116] | 0.68 | 1.09 | 0.74 | 1.02 | 1.07 | 0.73
N[C@H]1C(O)O[C@H](COP(=O)(O)O)[C@@H](O)[C@@H]1O (some centres unmarked) [compound 1123] | 0.50 | 1.55 | 0.78 | 0.92 | 1.68 | 0.84
O=CC(O)C(O)C(O)C(O)C(=O)O (centres unmarked) [compound 1127] | 0.83 | 1.03 | 0.85 | 0.99 | – | 0.86
CC(=O)N[C@H]1C(O)O[C@H](COP(=O)(O)O)[C@@H](O)[C@@H]1O (some centres unmarked) [compound 1131] | 0.53 | 1.13 | 0.59 | 1.12 | 1.00 | 0.53
CC(=O)N[C@H]1C(OP(=O)(O)O)O[C@H](CO)[C@@H](O)[C@@H]1O (some centres unmarked) [compound 1132] | 1.10 | 0.73 | 0.80 | 0.98 | 0.74 | 0.82
CC(=O)N[C@H]1[C@H]([C@H](O)[C@H](O)CO)O[C@](O)(C(=O)O)C[C@@H]1O [compound 1138] | 0.84 | 0.95 | 0.80 | 0.93 | 1.03 | 0.87
CC(=O)N[C@@H]1[C@@H](O)[C@H](O)[C@@H](CO)O[C@H]1NC(=O)C[C@H](N)C(=O)O [compound 1149] | 0.80 | 1.03 | 0.82 | 0.99 | 1.03 | 0.82
O=C(O)C(O)C(O)CO (centres unmarked) [compound 1150] | 0.74 | 1.04 | 0.77 | 1.01 | 1.02 | 0.76
O=C(O)CC(O)(CC(=O)O)C(=O)O [compound 1157] | 0.94 | 1.18 | 1.10 | 1.07 | 1.10 | 1.03
O=C(O)CCC(=O)C(=O)O [compound 1163] | 1.11 | 1.21 | 1.35 | 1.16 | 1.04 | 1.16
C[N+](C)(C)CC(CC(=O)[O-])OC(=O)CCC(=O)O (centres unmarked) [compound 1165] | 0.75 | 0.94 | 0.71 | 1.09 | 0.87 | 0.65
O=C(O)CCC(=O)O [compound 1166] | 1.11 | 1.23 | 1.37 | 1.33 | 0.93 | 1.03
